No constants are given. Whether binding was seen depends on the method and setting. In cells and extracts the contact can be indirect. Some entries that bind do so weakly or less than the wild type.
How the values were obtained:
[1] = target: pyruvate kinase M2 (human (endogenous in HK-2)) (UniProt P14618); experiment: co-IP; HK-2 cells after OGD/R (DMSO vehicle control), lysed in RIPA buffer; anti-PKM2 antibody overnight at 4 °C, captured on Dynabeads M-280 sheep anti-rabbit IgG; blots for YAP1 and β-catenin; rabbit serum as control; reciprocal IPs named in the results only
[2] = target: Yes-associated protein (human (endogenous in HK-2)) (UniProt P46937); experiment: as above

Protein sequences, listed by entry. Tags and fused reporters are not part of them.
UniProt P14618: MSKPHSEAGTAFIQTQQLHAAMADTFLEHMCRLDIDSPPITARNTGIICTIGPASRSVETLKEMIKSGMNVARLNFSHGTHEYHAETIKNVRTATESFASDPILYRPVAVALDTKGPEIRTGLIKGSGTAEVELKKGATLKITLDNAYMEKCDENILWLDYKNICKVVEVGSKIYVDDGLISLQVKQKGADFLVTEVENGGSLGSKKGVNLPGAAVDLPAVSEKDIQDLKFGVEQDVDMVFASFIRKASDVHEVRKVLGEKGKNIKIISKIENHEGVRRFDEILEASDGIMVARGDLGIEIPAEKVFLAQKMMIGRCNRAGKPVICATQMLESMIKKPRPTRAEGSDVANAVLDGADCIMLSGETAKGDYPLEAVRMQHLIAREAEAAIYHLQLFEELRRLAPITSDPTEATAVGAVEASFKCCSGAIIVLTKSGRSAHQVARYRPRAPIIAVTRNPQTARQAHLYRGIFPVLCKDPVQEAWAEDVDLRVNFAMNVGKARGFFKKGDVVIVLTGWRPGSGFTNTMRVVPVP
UniProt P46937: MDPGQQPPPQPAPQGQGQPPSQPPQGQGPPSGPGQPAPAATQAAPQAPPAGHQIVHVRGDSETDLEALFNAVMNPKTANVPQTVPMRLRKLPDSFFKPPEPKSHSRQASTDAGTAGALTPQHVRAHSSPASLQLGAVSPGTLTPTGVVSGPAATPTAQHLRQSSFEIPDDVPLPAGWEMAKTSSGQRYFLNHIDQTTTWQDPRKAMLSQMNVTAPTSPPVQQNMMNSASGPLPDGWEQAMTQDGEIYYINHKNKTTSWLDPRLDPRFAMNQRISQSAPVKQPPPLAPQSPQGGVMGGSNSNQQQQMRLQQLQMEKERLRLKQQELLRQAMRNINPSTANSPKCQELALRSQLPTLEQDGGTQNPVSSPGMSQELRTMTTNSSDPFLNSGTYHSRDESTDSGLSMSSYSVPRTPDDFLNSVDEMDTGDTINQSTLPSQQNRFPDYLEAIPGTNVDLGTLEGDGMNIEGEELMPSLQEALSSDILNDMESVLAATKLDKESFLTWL

binding [1] | binding [2] | Substance
binds |  | Yes-associated protein (from UniProt P46937 1-504)
 | binds | pyruvate kinase M2 (from UniProt P14618 1-531)
